This note sets out measurements from publication PMC13291606.

These are yes or no findings as the source states them, for the method shown. Binding seen in cells or lysates may run through a third protein. A yes stands for co-enrichment or nearness to the bait. Other partners may have been found.

This experiment has as its target Flag p21 WT, P38936. The experiment is described as follows: affinity purification with mass spectrometry; Flag-tagged p21 or p27 overexpressed in HeLa wt and AMBRA1-KO; lysis in 1% NP40, 50 mM HEPES pH 7.5, 150 mM NaCl; anti-DYKDDDDK magnetic agarose, eluted with 3x DYKDDDDK peptide; LC-MS/MS (DIA). The following applies: remark: other sources report otherwise.

B1: CDK4, endogenous, P11802 1-303 (protein)
chain: MATSRYEPVAEIGVGAYGTVYKARDPHSGHFVALKSVRVPNGGGGGGGLPISTVREVALLRRLEAFEHPNVVRLMDVCATSRTDREIKVTLVFEHVDQDLRTYLDKAPPPGLPAETIKDLMRQFLRGLDFLHANCIVHRDLKPENILVTSGGTVKLADFGLARIYSYQMALTPVVVTLWYRAPEVLLQSTYATPVDMWSVGCIFAEMFRRKPLFCGNSEADQLGKIFDLIGLPPEDDWPRDVSLPRGAFPPRGPRPVQSVVPEMEESGAQLLLEMLTFNPHKRISAFRALQHSYLHKDEGNPE
For B1, the binding entry is “binds”.
